# Measurements reported in PubChem BioAssay AID2517 (National Center for Advancing Translational Sciences (NCATS), 2010).
# The chains behind the UniProt entries cited, without tags or fusion partners.
# UniProt P27695, whole entry, looked up: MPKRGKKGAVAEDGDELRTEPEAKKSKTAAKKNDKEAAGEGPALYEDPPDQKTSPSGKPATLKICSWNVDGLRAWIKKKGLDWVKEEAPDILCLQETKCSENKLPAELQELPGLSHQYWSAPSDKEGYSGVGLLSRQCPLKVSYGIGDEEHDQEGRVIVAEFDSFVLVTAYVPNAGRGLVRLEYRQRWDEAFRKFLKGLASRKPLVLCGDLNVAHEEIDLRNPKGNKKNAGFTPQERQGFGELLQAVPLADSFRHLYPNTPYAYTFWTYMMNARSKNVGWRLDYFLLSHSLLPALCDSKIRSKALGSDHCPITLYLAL
# In all, about 350,000 compounds went through this assay and about 1,200 (0.34%) were called active. The shares of active, inactive and inconclusive entries below differ from those in the screen. Calls follow the shape of the dose curve; as a rule, active = well fitted inhibition curve with a large enough effect; inconclusive = small, poorly fitted or top-dose-only effect; inactive = no such curve, though single readings can be large or run the other way. A potency beside an inconclusive call is a rough fit, not a confirmed value.
# Target: DNA repair nuclease/redox regulator APEX1 (Homo sapiens) (UniProt P27695)
# Test: qHTS Assay for Inhibitors of the Human Apurinic/apyrimidinic Endonuclease 1 (APE1); also: nearly all actives have a fitted effect of over 55% in size;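 as to activity change, negative = inhibition: plate controls were vehicle for no effect and reference inhibitor for full effect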
# Conditions: recombinant APE1, TAMRA/BHQ-2 abasic DNA cleavage fluorescence; activity change, negative = inhibition: at 65.8 µM (top of the series)
# Method in brief: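 Substrate: short duplex with […] THF abasic site, 5'-TAMRA and 3'-BHQ-2, 50 nM final. APE1 at 0.75 nM, preincubated 15 min RT with compound. Fluorescence increase from first to third read measured activity.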
# Potency is read from the fitted curve at half-maximal effect.
Compound,"activity change, negative = inhibition",Potency
CC(=O)N1N=C(c2ccc(C)cc2)OC1c1ccc(Br)cc1 (centres undefined),inactive: 7.94%,–
COc1cccc(-c2cn(C[C@H]3CC[C@@H]([C@@H]4CC[C@H](Cn5cc(-c6cccc(OC)c6)nn5)O4)O3)nn2)c1,inactive: 6.39%,–
O=C1c2c(O)ccc([N+](=O)[O-])c2C(=O)c2c([N+](=O)[O-])ccc(O)c21,–,"inconclusive: 31.6 µM [inhibitor, partial curve]"
CC1SCC(NC(=O)c2ccccc2Cl)CS1 (centres undefined),–,"inconclusive: 2.82 µM [inhibitor, single point]"
Oc1cc(NCc2ccc(F)cc2)cc2cccnc12,–,inactive
Cc1[nH]c2ccc(C(=O)O)cc2c1C,–,"inconclusive: 35.5 µM [inhibitor, single point]"
COc1ccc(CNC(=O)CCS(=O)(=O)c2ccc(Br)cc2)cc1,inactive: -16.5%,–
CC(C(=O)Nc1cc([N+](=O)[O-])ccc1Cl)N1CCN(c2ccc(O)cc2)CC1 (centres undefined),–,"inconclusive: 28.2 µM [inhibitor, single point]"
O=S(=O)(c1ccc(Cl)c(S(=O)(=O)N2CCCC2)c1)N1CCCC1,–,"inconclusive: 39.8 µM [inhibitor, single point]"
CC(C)(C)c1ccc(NC(=O)CC2(C(F)(F)F)OCCO2)cc1,–,"inconclusive: 7.94 µM [inhibitor, single point]"
CCN1CCN(Cc2ccc(NC(=O)c3ccc(C)c(/C=C/c4cnc(Nc5cc(N6CCNCC6)nc(C)n5)cn4)c3)cc2C(F)(F)F)CC1,–,"inconclusive: 23.8 µM [inhibitor, single point]"
Cc1ccnc(NC(=O)CCS(=O)(=O)c2ccccc2)c1,inactive: 12%,–
CCc1nc2ccccc2n(CCOCCOCCn2c(=O)c(CC)nc3ccccc32)c1=O,–,"inconclusive: 44.7 µM [inhibitor, single point]"
COc1ccc(N2CCN(C(CNS(C)(=O)=O)c3ccco3)CC2)cc1 (centres undefined),inactive: -2.34%,–
COc1cc(-c2oc3cc(O)cc(O)c3c(=O)c2O[C@@H]2O[C@H](COC3O[C@@H](C)[C@H](O)[C@@H](O)[C@H]3O)[C@@H](O)[C@H](O)[C@H]2O)ccc1O (some centres undefined),inactive: 2.74%,–
COc1ccc2c(c1)OC(O)(C(F)(F)C(F)F)CC2=O (centres undefined),–,"inconclusive: 44.7 µM [inhibitor, single point]"
COC(=O)[C@@]1(Cc2ccc(F)cc2)[C@H]2c3cc(C(=O)N(C)C)n(Cc4ccc(OC(F)(F)F)cc4)c3C[C@H]2CN1C(=O)c1ccccc1,–,"inconclusive: 6.31 µM [inhibitor, single point]"
O=C(Cn1nnc(-c2ccccc2NC(=O)c2ccccc2F)n1)NCc1ccco1,–,"inconclusive: 28.2 µM [inhibitor, single point]"
Cc1ccc(CSc2nnc(SCC(=O)N/N=C/C=C/c3ccco3)s2)cc1,–,active: 35.5 µM
COc1ccc(Cl)cc1NC(=S)N1CCN(c2ncccn2)CC1,–,"inconclusive: 0.398 µM [inhibitor, full curve, poor fit]"
COc1ccc(C2NCCc3c2[nH]c2ccccc32)cc1CSc1nc2ccccc2s1 (centres undefined),–,"inconclusive: 0.224 µM [inhibitor, full curve, poor fit]"
Cc1cccc(OCC(=O)NCc2cc(C)nc3ccccc23)c1,–,"inconclusive: 8.91 µM [inhibitor, single point]"

Compound,"activity change, negative = inhibition",Potency
CSC1=NC(=O)/C(=C\c2cccc3ccccc23)S1,inactive: -6.77%,–
COc1ccc(-c2noc(CCC(=O)Nc3cccc(C)c3)n2)cc1,–,"inconclusive: 44.7 µM [inhibitor, single point]"
CCCCCCCCCCCCCCCCCCc1ccc(C(=O)/C=C/C(=O)O)cc1,–,"inconclusive: 31.6 µM [inhibitor, single point]"
COc1ccc(N2CCN(Cc3nc4c(c(=O)[nH]c(=O)n4C)n3CCCc3ccccc3)CC2)cc1,–,"inconclusive: 39.8 µM [inhibitor, single point]"
CCCCN(c1ccccc1)S(=O)(=O)c1cccc2cccnc12,–,"inconclusive: 39.8 µM [inhibitor, single point]"
CC(O)CNc1nc2c(c(=O)n(C)c(=O)n2C)n1C/C=C/c1ccccc1 (centres undefined),–,"inconclusive: 44.7 µM [inhibitor, single point]"
Cc1c(Cl)cccc1NC(=O)CNc1cccc(S(=O)(=O)N(C)C)c1,inactive: -48.3%,–
CN1CCN(c2nc3nonc3nc2N2CCN(C)CC2)CC1,–,"inconclusive: 39.8 µM [inhibitor, single point]"
COc1ccc(CC(=O)N2CCN=C2SC)cc1OC,–,"inconclusive: 10 µM [inhibitor, single point]"
CCOc1c2ccc(C(=O)NCc3ccco3)cc2nn1CCOC,inactive: -1.37%,–
CCOc1ccc(-n2c(=S)sc3c(=O)[nH]c(SCC(=O)NCc4ccco4)nc32)cc1,–,"inconclusive: 44.7 µM [inhibitor, single point]"
COc1cccc(/C=C2/NC(=O)N(CC(=O)Nc3ccc(C)cc3)C2=O)c1OCc1cccc(C(=O)O)c1,–,"inconclusive: 29.9 µM [inhibitor, single point]"
NC(=O)CN1CCN(C(=O)NC2CCCCC2)CC1,inactive: -2.59%,–
Cc1cc(C)nc(NS(=O)(=O)c2ccc(NC(=O)c3cc(-c4ccccc4)nc4ccccc34)cc2)n1,–,"inconclusive: 17.8 µM [inhibitor, partial curve, poor fit]"
Cc1sc2ccccc2[n+]1CC(=O)c1ccccc1,inactive: 17.4%,–
O=C(N/N=C/c1sc(=O)n(Cc2ccc(Br)cc2)c1Cl)c1ccco1,–,"inconclusive: 21.2 µM [inhibitor, single point]"
CCOC(=O)c1c(NC(=O)CS(=O)(=O)c2cn(CC)c3ccccc23)sc2c1CCCCC2,–,"inconclusive: 3.16 µM [inhibitor, single point]"
Nc1ccc(Cl)c(S(=O)(=O)Nc2cccc(Cl)c2)c1,–,"inconclusive: 0.005 µM [inhibitor, full curve, poor fit]"
CC(=O)OC[C@@H]1O[C@H](C/C=N\OCC[C@H]2C=C[C@H](OC(C)=O)[C@@H](COC(C)=O)O2)C=C[C@@H]1OC(C)=O,–,"inconclusive: 7.94 µM [inhibitor, single point]"
COCCNc1ncnc2ccc(-c3ccoc3)cc12,–,"inconclusive: 3.16 µM [inhibitor, single point]"
CC1=NN(C(N)=S)C(=O)C1N=Nc1ccccc1 (centres undefined),–,"inconclusive: 15.8 µM [inhibitor, partial curve]"
O=C(O)C1CC(c2ccccc2)=Nc2ccccc2S1 (centres undefined),–,"inconclusive: 7.94 µM [inhibitor, partial curve, poor fit]"

Compound,"activity change, negative = inhibition",Potency
CCOc1ccc(-c2c(C#N)c(N)nc3sc(C(=O)c4ccccc4)c(N)c23)cc1,–,"inconclusive: 44.7 µM [inhibitor, single point]"
O=C(O)c1cc2c(s1)-c1ccccc1CC2,inactive: -1.7%,–
COc1ccc(/C=C/C(=O)CC(O)(c2ccccc2)C(F)(F)F)cc1 (centres undefined),–,"inconclusive: 44.7 µM [inhibitor, single point]"
O=C(NN1C(=O)c2ccc(-c3ccc4c(c3)C(=O)N(NC(=O)c3cccnc3)C4=O)cc2C1=O)c1cccnc1,inactive: 0.833%,–
CCN(CC)c1ccc(C(=O)OCC(=O)N(C)Cc2ccccc2)cc1,–,"inconclusive: 0.199 µM [inhibitor, full curve, poor fit]"
C/C=C1\C(OC2OC(CO)C(O)C(O)C2O)OC=C(C(=O)OC)C1CC(=O)OCC1C(C)C(OC(=O)CC2C(C(=O)OC)=COC(OC3OC(CO)C(O)C(O)C3O)/C2=C\C)CC1C(CO)CO (centres undefined),–,"inconclusive: 31.6 µM [inhibitor, single point]"
CCCCc1ccc(NC(=S)NCc2ccccc2OC)cc1,–,"inconclusive: 20 µM [inhibitor, partial curve]"
CC(C)Oc1ccc(S(=O)(=O)N2CCCCC2)cc1NC(=O)C1=COCCO1,–,"inconclusive: 7.52 µM [inhibitor, single point]"
O=S1(=O)C2CC3C=CC2(CN1Cc1ccccc1)O3 (centres undefined),–,"inconclusive: 0.0447 µM [inhibitor, full curve, poor fit]"
O=C(NC(Cc1c[nH]c2ccccc12)C(=O)NCc1ccc(F)cc1)OCc1ccccc1 (centres undefined),–,"inconclusive: 12.6 µM [inhibitor, partial curve]"
N#Cc1c(-c2ccc(Cl)cc2)cc(-c2cccs2)nc1SCC(=O)O,–,"inconclusive: 23.8 µM [inhibitor, single point]"
CN1C(=S)N(c2ccccc2)C(=O)/C1=C/c1ccco1,–,"inconclusive: 11.2 µM [inhibitor, partial curve, poor fit]"
CC(C)c1ccc(S(=O)(=O)/N=C2\C=C(NS(=O)(=O)c3ccccc3)C(=O)c3ccccc32)cc1,inactive: -20.4%,–
S=C(NCCN1CCOCC1)NC1CCCCC1,–,"inconclusive: 0.0089 µM [inhibitor, full curve, poor fit]"
O=C(CC(NCc1ccccn1)C(=O)O)Nc1ccccc1Cl (centres undefined),–,"inconclusive: 0.224 µM [inhibitor, full curve]"
O=C(COC(=O)CNC(=O)c1ccc(-c2ccccc2)cc1)NCc1ccco1,–,"inconclusive: 25.1 µM [inhibitor, single point]"
NC(=O)C(c1ccccn1)c1ncc(C(F)(F)F)cc1Cl (centres undefined),inactive: -1.76%,–
CC(C(=O)N1c2ccccc2Sc2ccccc21)n1nnc(-c2cccs2)n1 (centres undefined),–,"inconclusive: 8.91 µM [inhibitor, single point]"
N#Cc1c(N2CCCC2)nc(N)c2c(N)nc(N3CCCC3)cc12,–,"inconclusive: 5.62 µM [inhibitor, partial curve]"
CC(=O)Nc1cc2nn(-c3ccccc3)nc2cc1Cl,–,"inconclusive: 5.01 µM [inhibitor, single point]"

# Pulled by compound from the entries so far:
Compound,"activity change, negative = inhibition",Potency
N#Cc1c(N2CCCC2)nc(N)c2c(N)nc(N3CCCC3)cc12,–,"inconclusive: 5.62 µM [inhibitor, partial curve]"
O=C(NN1C(=O)c2ccc(-c3ccc4c(c3)C(=O)N(NC(=O)c3cccnc3)C4=O)cc2C1=O)c1cccnc1,inactive: 0.833%,–
CN1C(=S)N(c2ccccc2)C(=O)/C1=C/c1ccco1,–,"inconclusive: 11.2 µM [inhibitor, partial curve, poor fit]"
